Where two headings read alike, the source gives them in different places.
What was measured:
[1] = system: metastatic or surgically unresectable urothelial cancer harboring select FGFR genetic alterations
Text: The study comprises a Screening Phase (molecular screening at any time prior to first dose and study screening within 30 days of first dose), a treatment phase, and a post-treatment follow-up phase. The treatment phase comprises the period from first dose until the end-of-treatment visit. The follow-up phase extends until the subject has died, withdraws consent, is lost to follow-up, or the end of study, whichever comes first.
Included patients were adults with measurable urothelial cancer per Response Evaluation Criteria in Solid Tumors version 1.1.
Patients were required to have at least 1 FGFR2/FGFR3 mutation or fusion per central lab testing of RNA from formalin-fixed, paraffin-embedded tumor samples, using a custom reverse transcriptase polymerase chain reaction assay.
The primary end point of this study is Objective Response Rate to the selected regimen (Regimen 3).
Secondary end points include progression-free survival (PFS), response duration, Overall Survival, safety, response rate in biomarker-specific subgroups, and pharmacokinetics.
The study was designed to enroll 180 patients with specified FGFR alterations. Of these, ≥88 were required in the selected regimen. […] Responses were assessed by investigators and an independent radiological review committee. Progression-free survival and overall survival were estimated using Kaplan-Meier product limit method. Data from patients who were progression free and alive or with unknown status were censored at last tumor assessment. Efficacy end points were analysed at primary analysis cut-off.

Amino acid sequences for entries named in this document (tags omitted).
UniProt P11712, whole entry: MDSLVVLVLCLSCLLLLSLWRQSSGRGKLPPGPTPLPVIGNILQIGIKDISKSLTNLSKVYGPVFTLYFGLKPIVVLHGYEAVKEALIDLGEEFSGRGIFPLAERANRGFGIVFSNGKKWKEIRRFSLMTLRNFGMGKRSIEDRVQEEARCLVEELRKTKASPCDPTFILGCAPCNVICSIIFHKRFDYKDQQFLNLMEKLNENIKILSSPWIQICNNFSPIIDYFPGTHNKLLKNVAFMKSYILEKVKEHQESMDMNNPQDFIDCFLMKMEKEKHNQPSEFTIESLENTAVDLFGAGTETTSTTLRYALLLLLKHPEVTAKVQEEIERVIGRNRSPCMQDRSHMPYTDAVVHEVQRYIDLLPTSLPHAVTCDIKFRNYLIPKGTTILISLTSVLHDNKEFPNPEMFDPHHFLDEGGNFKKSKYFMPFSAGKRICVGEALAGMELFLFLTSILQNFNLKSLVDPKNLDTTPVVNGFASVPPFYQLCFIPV
UniProt P08684, whole entry: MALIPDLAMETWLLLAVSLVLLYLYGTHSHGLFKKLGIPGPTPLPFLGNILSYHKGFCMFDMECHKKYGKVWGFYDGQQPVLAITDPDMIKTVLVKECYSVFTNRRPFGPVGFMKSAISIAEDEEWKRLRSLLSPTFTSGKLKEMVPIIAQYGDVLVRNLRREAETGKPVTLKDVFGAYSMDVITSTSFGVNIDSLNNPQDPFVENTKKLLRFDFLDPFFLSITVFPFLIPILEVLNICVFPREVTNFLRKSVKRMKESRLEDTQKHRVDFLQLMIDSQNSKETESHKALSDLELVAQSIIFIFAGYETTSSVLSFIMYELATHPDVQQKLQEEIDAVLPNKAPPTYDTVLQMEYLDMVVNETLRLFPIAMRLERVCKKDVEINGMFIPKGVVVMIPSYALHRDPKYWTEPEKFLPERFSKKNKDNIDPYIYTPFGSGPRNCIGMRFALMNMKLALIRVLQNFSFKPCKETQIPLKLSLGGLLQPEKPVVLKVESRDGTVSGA

CYP2C9 = CYP2C9 (Homo sapiens, UniProt P11712); conditions: estimated
CYP3A4 = CYP3A4 (Homo sapiens, UniProt P08684); conditions: estimated
CYP2C9 or CYP3A4 = conditions: in vivo
clinical = conditions: human, in vivo
[2] = 6 mg continuous, regimen 2 (n = 78)
[3] = 8 mg continuous, selected regimen 3 (n = 99)
[4] = 10 mg intermittent, regimen 1 (n = 33)

COc1cc(OC)cc(N(CCNC(C)C)c2ccc3ncc(-c4cnn(C)c4)nc3c2)c1 [erdafitinib, N-(3,5-dimethoxy-phenyl)-N′-(1-methylethyl)-N-[3-(1-methyl-1H-pyrazol-4-yl)quinoxalin-6-yl]ethane-1,2-diamine]
Median DoR, investigator assessment ([1]; Chemotherapy-refractory patients in Regimen 3 (N = 87)): 5.55 months | Median duration of response ([1]; Regimen 1, 10 mg intermittent (n = 33)): 13.4 mo | Median duration of response ([1]; Regimen 2, 6 mg continuous (n = 78)): 4.9 mo | Median duration of stable disease ([1]; Regimen 3, patients with FGFR mutations (n=74)): 3.7 months | Patients with Nail discoloration, Any grade [2]: 8 (10) no. (%) | Patients with Nail discoloration, Grade 1 [2]: 6 (8) no. (%) | Patients with Nail discoloration, Grade 2 [2]: 2 (3) no. (%) | Patients with Nail discoloration, Grade ≥3 [2]: 0 no. (%) | Treatment-related adverse event: Nail discoloration, Any grade [2]: 8 (10) no. (%) | Treatment-related adverse event: Nail discoloration, Grade 1 [2]: 6 (8) no. (%) | Treatment-related adverse event: Nail discoloration, Grade 2 [2]: 2 (3) no. (%) | Treatment-related adverse event: Nail discoloration, Grade ≥3 [2]: 0 no. (%) | Patients with Nail discoloration, Any grade [3]: 11 (11) no. (%) | Patients with Nail discoloration, Grade 1 [3]: 8 (8) no. (%) | Patients with Nail discoloration, Grade 2 [3]: 3 (3) no. (%) | Patients with Nail discoloration, Grade ≥3 [3]: 0 no. (%) | Patients with Nail discoloration, Any grade [4]: 1 (3) no. (%) | Patients with Nail discoloration, Grade 1 [4]: 0 no. (%) | Patients with Nail discoloration, Grade 2 [4]: 1 (3) no. (%) | Patients with Nail discoloration, Grade ≥3 [4]: 0 no. (%) | Treatment-related adverse event: Nail discoloration, Any grade [4]: 1 (3) no. (%) | Treatment-related adverse event: Nail discoloration, Grade 1 [4]: 0 no. (%) | Treatment-related adverse event: Nail discoloration, Grade 2 [4]: 1 (3) no. (%) | Treatment-related adverse event: Nail discoloration, Grade ≥3 [4]: 0 no. (%) | Contribution of CYP2C9 in the total clearance (CYP2C9): 39% | Contribution of CYP3A4 in the total clearance (CYP3A4): 20% | Effect of co-administration of strong inhibitors of CYP2C9 or CYP3A4 (CYP2C9 or CYP3A4): increased erdafitinib plasma concentrations | Tmax (clinical): 2.5 h

— patent US20220175768A1, “FGFR TYROSINE KINASE INHIBITORS FOR THE TREATMENT OF UROTHELIAL CARCINOMA” (Janssen Pharmaceutica NV, priority 2019, published 2022)
